Measurements from the supplement of paper PMC8256030.
Values joined by “and” are separate entries in the source; they are usually repeats but may differ in a detail not shown here. Identical values can stand only once. Counter-ions that a name gives are not always drawn. This is one part of the list. This data set is noisy: repeats of one test often differ as much as different tests do.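 HEK293T cells were given each compound shortly before transfection with a reporter in which red mCherry is followed by the SARS-CoV-2 frameshift element and then GFP in the −1 frame, so GFP appears only after frameshifting.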

Legend:
[1] = test system: SARS-CoV-2 -1 PRF reporter mCherry-FSE-GFP(-1); test: mCherry (red) intensity as percent of control; higher = higher upstream reporter expression; conditions: 10 µM; 24 h; HEK293T
[2] = test system: SARS-CoV-2 -1 PRF reporter mCherry-FSE-GFP(-1); test: percent effect, decrease of GFP/mCherry ratio (-1 PRF reporter) relative to controls; higher = stronger frameshift inhibition; conditions: 10 µM; 24 h; HEK293T

Row | SMILES | mCherry [1] | percent effect [2]
1 | CCC(=O)OCC(=O)[C@@]1(OC(=O)CC)[C@@H](C)C[C@H]2[C@@H]3CCC4=CC(=O)C=C[C@]4(C)[C@@]3(F)[C@@H](O)C[C@@]21C | 115% | -4.08%
2 | N=C(N)n1cccn1 [praxadine] | 126% | 6.98%
3 | O=C(O)c1c(O)c(-c2ccccc2)nc2ccccc12 [oxycinchophen] | 103% | -0.246%
4 | O=C1C(O)=C(O)C(=O)C(O)=C1O [tetroquinone] | 94.9% | -5.37%
5 | CCN(CC)CCNC(=O)COc1ccc(OC)cc1 | 89.2% | -4.08%
6 | COCCCN1CCN(c2ccccc2OC)CC1 [dimetholizine] | 141% | 0.553%
7 | NC(=O)c1cn(Cc2c(F)cccc2F)nn1 [rufinamide] | 82.7% | -2.75%
8 | COc1cc(C(=O)NCc2ccc(OCCN(C)C)cc2)cc(OC)c1OC [trimethobenzamide] | 106% | -3.34%
9 | COc1ccc(C(=O)NCc2cccnc2)cc1C(=O)NCc1cccnc1 [Picotamide] | 82.2% | -4.35%
10 | CCCOc1ccc(C(=O)OCCN(CC)CC)cc1N | 97.1% | -2%
11 | C[C@H]1c2cccc(O)c2C(O)=C2C(=O)[C@]3(O)C(O)=C(C(N)=O)C(=O)[C@@H](N(C)C)[C@@H]3[C@@H](O)[C@@H]21 | 103% | -6.96%
12 | CC1=CC(=O)NS(=O)(=O)O1 [acesulfame] | 107% | 0.167%
13 | CCN(CC)CC(=O)Nc1c(C)cccc1C [Lidocaine·HCl·H2O] | 81.3% | -0.353%
14 | CN(C)CCCn1c(=O)c2ccccc2c2ccccc21 [fantridone] | 102% | -7.96%
15 | CNC[C@H](O)c1ccc(O)c(O)c1 [epinephrine] | 90.6% | -2.03%
16 | N[C@H](Cc1ccccc1)C(=O)O | 108% | -0.443%
17 | CCCCCCCCCCCC[N+](C)(C)CCOc1ccccc1 [domiphen] | 59.4% | -2.11%
18 | CCNC(=O)[C@@H]1CCCN1C(=O)[C@H](CCCNC(=N)N)NC(=O)[C@H](CC(C)C)NC(=O)[C@@H](COC(C)(C)C)NC(=O)[C@H](Cc1ccc(O)cc1)NC(=O)[C@H](CO)NC(=O)[C@H](Cc1c[nH]c2ccccc12)NC(=O)[C@H](Cc1cnc[nH]1)NC(=O)[C@@H]1CCC(=O)N1 [buserelin] | 102% | -0.805%
19 | O=C([O-])CN(CCN(CC(=O)[O-])CC(=O)[O-])CC(=O)[O-].[Co+2].[Co+2] [Kelocyanor] | 76.7% | -0.576%
20 | CN1CCC(=C2c3ccccc3Sc3ccccc32)CC1 [pimethixene] | 166% | -0.727%
21 | CC(C)(Oc1ccc(C2CC2(Cl)Cl)cc1)C(=O)O (stereo unspecified) [ciprofibrate] | 120% | -10.6%
22 | COc1ccc(-c2cc(=O)c3c(O)cc(O[C@@H]4O[C@H](CO[C@@H]5O[C@@H](C)[C@H](O)[C@@H](O)[C@H]5O)[C@@H](O)[C@H](O)[C@H]4O)cc3o2)cc1O [diosmin] | 101% and 84.6% | 2.04% and -4.84%
23 | C[N+]1(C)[C@@H]2CC[C@H]1C[C@@H](OC(=O)C(O)c1ccccc1)C2 (stereo partly specified) [homatropine methylbromide] | 102% and 110% | -2.01% and -7.03%
24 | Nc1nc(=O)c2ncn([C@@H]3C[C@H](CO)[C@H]3CO)c2[nH]1 [lobucavir] | 59.2% | 3.21%

Row | SMILES | mCherry [1] | percent effect [2]
25 | CC(=O)Nc1c(I)cc(I)c(C(=O)O)c1I | 113% | -2.39%
26 | CCOC(=O)O[C@]1(C(=O)COC(=O)CC)CC[C@H]2[C@@H]3CCC4=CC(=O)C=C[C@]4(C)[C@H]3[C@@H](O)C[C@@]21C | 95.2% | -4.94%
27 | CC1(C)S[C@@H]2[C@H](NC(=O)[C@H](C(=O)O)c3ccsc3)C(=O)N2[C@H]1C(=O)O | 130% | -1.31%
28 | CC(C)NNC(=O)COc1ccc(Cl)cc1 [iproclozide] | 86.6% | -18.8%
29 | NS(=O)(=O)c1cc2c(cc1Cl)NCNS2(=O)=O [hydrochlorothiazide] | 115% | -10.3%
30 | Nc1nc(=O)c2nc(CNc3ccc(C(=O)N[C@@H](CCC(=O)O)C(=O)O)cc3)cnc2[nH]1 | 82% | -0.766%
31 | Nc1nc(F)nc2c1ncn2[C@@H]1O[C@H](CO)[C@@H](O)[C@@H]1O [fludarabine] | 108% | -1.51%
32 | CCCCCN(CCCOC)C(=O)C(CCC(=O)O)NC(=O)c1ccc(Cl)c(Cl)c1 (stereo unspecified) [loxiglumide] | 82.3% | -1.22%
33 | O=C1N=C(N2CCOCC2)CN1c1ccc(Cl)cc1 [imepitoin] | 93.4% | -0.879%
34 | C[N+](C)(C)CCOP(=O)(O)OP(=O)([O-])OC[C@H]1O[C@@H](n2ccc(N)nc2=O)[C@H](O)[C@@H]1O [citicoline] | 108% | 1.34%
35 | CNCC[C@@H](Oc1ccccc1C)c1ccccc1 | 91.2% | -0.857%
36 | Cc1ccc(S(=O)(=O)NCl)cc1 [tosylchloramide sodium] | 119% | -2.07%
37 | CCC(=O)O[C@]1(C(=O)CCl)[C@@H](C)C[C@H]2[C@@H]3CCC4=CC(=O)C=C[C@]4(C)[C@@]3(F)[C@@H](O)C[C@@]21C [Clobetasol Propionate] | 222% | -2.3%
38 | CCN(CC)CC(=O)OCC(=O)[C@@]1(O)CC[C@H]2[C@@H]3CCC4=CC(=O)C=C[C@]4(C)[C@H]3[C@@H](O)C[C@@]21C [prednisolamate] | 60.1% | -0.792%
39 | Cc1onc(-c2ccccc2)c1C(=O)N[C@@H]1C(=O)N2[C@@H]1SC(C)(C)[C@@H]2C(=O)O | 133% | 0.605%
40 | C=C1/C(=C\C=C2/CCC[C@]3(C)[C@@H]([C@H](C)/C=C/[C@H](C)C(C)C)CC[C@@H]23)C[C@@H](O)C[C@@H]1O [doxercalciferol] | 103% | -3.66%
41 | CC(=O)c1ccc2c(c1)N(CCCN(C)C)c1ccccc1S2 [acepromazine] | 2620% | -23.9%
42 | NCC[C@H](O)C(=O)N[C@@H]1C[C@H](N)[C@@H](O[C@H]2O[C@H](CN)[C@@H](O)[C@H](O)[C@H]2O)[C@H](O)[C@H]1O[C@H]1O[C@H](CO)[C@@H](O)[C@H](N)[C@H]1O [amikacin] | 85.5% and 96.8% | -0.988% and -1.45%
43 | Cc1ccnc2c1CCCC2C(N)=S (stereo unspecified) [isotiquimide] | 131% | 3.59%
44 | OC[C@@H](O)CN1CCN(c2ccccc2)CC1 [levodropropizine] | 93.7% | -8.8%
45 | O=C1c2ccccc2C(=O)C1c1ccc(Br)cc1 [bromindione] | 88.5% | 0.832%
46 | Oc1ccc(Cl)c2cccnc12 [cloxiquine] | 112% | -3.79%
47 | COc1cnc(NS(=O)(=O)c2ccc(N)cc2)nc1 [sulfametoxydiazine] | 87.9% | -2.05%
48 | CSCC[C@H](NC(=O)[C@H](Cc1c[nH]c2ccccc12)NC(=O)CCNC(=O)OC(C)(C)C)C(=O)N[C@@H](CC(=O)O)C(=O)N[C@@H](Cc1ccccc1)C(N)=O [Pentagastrin] | 97.4% | -1.42%
